Assay results published in the supplement of paper PMC4807443.
Structures can show the parent of a compound that is named as a salt. The list shows a part of the results. The numbers are fractions of the control, whatever unit the source prints. Most values lie at the level of the controls, where differences are scatter.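 MIN6, a mouse insulinoma beta-cell line, stably carries a lentiviral reporter where Pdx1 and Ins1 promoters each drive a nuclear fluorescent protein; Hoechst staining and automated imaging counted cells. Drugs were candidate hits if Ins1 promoter readout exceeded two median absolute deviations from DMSO controls while Pdx1 activity stayed near normal.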

system: MIN6; experiment: % Pdx1+ Ins1+ (double-positive, mature) cells relative to DMSO control (fold of DMSO control); higher = more mature Ins1 promoter-active cells; conditions: 8.5 µM; 48 h; glucose 5 mM

SMILES	% Pdx1+ Ins1+
COc1c(O)cc2c(c1O)[C@@H]1O[C@H](CO)[C@@H](O)[C@H](O)[C@H]1OC2=O [Bergenin monohydrate]	0.957
CCCCOc1ccc(OCCCN2CCOCC2)cc1 [Pramoxine hydrochloride]	0.794
O=C(NCC1CCCCN1)c1cc(OCC(F)(F)F)ccc1OCC(F)(F)F (stereo not given) [Flecainide acetate]	0.852
CC1CCc2cc(F)cc3c(=O)c(C(=O)O)cn1c23 (stereo not given) [Flumequine]	1.08
CCOC(=O)C1=C(C)NC(C)=C(C(=O)OC)C1c1cccc([N+](=O)[O-])c1 (stereo not given) [Nitrendipine]	0.825
CCn1cc(C(=O)O)c(=O)c2cc(F)c(N3CCNCC3)cc21 [Norfloxacin]	1.09
O=C(c1ccc(OCCN2CCCCC2)cc1)c1c(-c2ccc(O)cc2)sc2cc(O)ccc12 [Raloxifene hydrochloride]	1.04
NS(=O)(=O)c1cc2c(cc1C(F)(F)F)NC(Cc1ccccc1)NS2(=O)=O (stereo not given) [Bendroflumethiazide]	0.907
CC(CN1c2ccccc2Sc2ccccc21)N(C)C (stereo not given) [Promethazine hydrochloride]	0.877
CNC1(C)C2CCC(C2)C1(C)C (stereo not given) [Mecamylamine hydrochloride]	1.07
Cn1c(=O)c2c(ncn2CC(O)CO)n(C)c1=O (stereo not given) [Diprophylline]	1.15
CC(=C(CCO)SSCC1CCCO1)N(C=O)Cc1cnc(C)nc1N (stereo in doubt) [Fursultiamine Hydrochloride]	0.869
CCC(C)(CN(C)C)OC(=O)c1ccccc1 (stereo not given) [Amyleine hydrochloride]	0.947
C=C(NC(=O)C(=C)NC(=O)c1csc(C2=N[C@@H]3c4csc(n4)[C@H]4NC(=O)c5csc(n5)[C@H]([C@](C)(O)[C@@H](C)O)NC(=O)[C@H]5CSC(=N5)/C(=C/C)NC(=O)[C@H]([C@@H](C)O)NC(=O)c5csc(n5)[C@]3(CC2)NC(=O)[C@H](C)NC(=O)C(=C)NC(=O)[C@H](C)NC(=O)[C@H]([C@@H](C)CC)N[C@@H]2C=Cc3c([C@H](C)O)cc(nc3[C@H]2O)C(=O)O[C@@H]4C)n1)C(N)=O [Thiostrepton]	0.924
CC(C)(Oc1ccc(C2CC2(Cl)Cl)cc1)C(=O)O (stereo not given) [Ciprofibrate]	0.943
CC1=C(C(=O)O)N2C(=O)[C@@H](NC(=O)[C@H](N)c3ccc(O)cc3)[C@H]2SC1 [Cefadroxil]	0.827
CC(CCc1ccc(O)cc1)NCCc1ccc(O)c(O)c1 (stereo not given) [Dobutamine hydrochloride]	0.914
Nc1ccc(S(N)(=O)=O)cc1 [Sulfanilamide]	0.844
CC[C@]12CCCN3CCc4c(n(c5ccccc45)[C@@](O)(C(=O)OC)C1)[C@@H]32 [Vincamine]	0.918
O=C(O)c1cc(=O)c2c(OCC(O)COc3cccc4oc(C(=O)O)cc(=O)c34)cccc2o1 [Cromolyn disodium salt]	1.05
CC(=O)OC(C)C[N+](C)(C)C (stereo not given) [Methacholine chloride]	0.977
CCCCOc1ccc(CC(=O)NO)cc1 [Bufexamac]	1.16
C=CCc1ccccc1OCC(O)CNC(C)C (stereo not given) [Alprenolol hydrochloride]	0.952

Laid out differently: entries from further up.
CC1CCc2cc(F)cc3c(=O)c(C(=O)O)cn1c23 (stereo not given) [Flumequine]
  % Pdx1+ Ins1+: 1.08
CCOC(=O)C1=C(C)NC(C)=C(C(=O)OC)C1c1cccc([N+](=O)[O-])c1 (stereo not given) [Nitrendipine]
  % Pdx1+ Ins1+: 0.825

Carrying on:

SMILES	% Pdx1+ Ins1+
NC[C@H]1CC[C@H](C(=O)O)CC1 [Tranexamic acid]	1.13
CN(C)CCC(c1ccccc1)c1ccccn1 (stereo not given) [Pheniramine maleate]	1.04
CCSc1ccc2c(c1)N(CCCN1CCN(C)CC1)c1ccccc1S2 [Thiethylperazine malate]	0.816
Cc1c(C)c2c(c(C)c1O)CC[C@@](C)(CCC[C@H](C)CCC[C@H](C)CCCC(C)C)O2 (racemic) [Tocopherol (R,S)]	0.939
CCN(CCCc1ccccc1)CCCc1ccccc1 [Alverine citrate salt]	1.08
CCN(CC)C(=O)N1CCN(C)CC1 [Diethylcarbamazine citrate]	1.1
CCCC(C(=O)OCCN(CC)CC)(c1ccccc1)c1ccccc1 [Proadifen hydrochloride]	0.856
C=CC[N@@+]12CC[C@@]34c5ccccc5N5/C=C6/[C@H]7C[C@H]8[C@@]9(CC[N@@+]8(CC=C)C/C7=C/CO)c7ccccc7N(/C=C(/[C@@H](C[C@@H]31)/C(=C\CO)C2)[C@H]54)[C@@H]69 [Alcuronium chloride]	0.825
C[C@H](CCC(=O)NCC(=O)O)[C@H]1CC[C@H]2[C@@H]3[C@H](O)C[C@@H]4C[C@H](O)CC[C@]4(C)[C@H]3C[C@H](O)[C@]12C [Glycocholic acid]	0.937
Clc1ccc(COC(Cn2ccnc2)c2ccc(Cl)cc2Cl)cc1 (stereo not given) [Econazole nitrate]	1.01
Clc1ccccc1C(c1ccccc1)(c1ccccc1)n1ccnc1 [Clotrimazole]	0.972
N=C(N)NS(=O)(=O)c1ccc(N)cc1 [Sulfaguanidine]	1.12
NC(=O)c1cc[n+](CC2=C(C(=O)[O-])N3C(=O)[C@@H](NC(=O)[C@@H](c4ccccc4)S(=O)(=O)O)[C@H]3SC2)cc1 [Cefsulodin sodium salt]	1.03
CC1=C(/C=C/C(C)=C/C=C/C(C)=C/C(=O)O)C(C)(C)CCC1 [Retinoic acid]	1
CCC1(c2ccccc2)NC(=O)N(C)C1=O (stereo not given) [Mephenytoin]	0.946
CCc1c(C)[nH]c2c1C(=O)C(CN1CCOCC1)CC2 (stereo not given) [Molindone hydrochloride]	0.936
Cc1ncc(CO)c(CO)c1O [Pyridoxine hydrochloride]	0.909
CC(=O)O[C@]1(C(C)=O)CC[C@H]2[C@@H]3C=C(Cl)C4=CC(=O)[C@@H]5C[C@@H]5[C@]4(C)[C@H]3CC[C@@]21C [Cyproterone acetate]	0.913
O=C(O)COCCN1CCN(C(c2ccccc2)c2ccc(Cl)cc2)CC1 (stereo not given) [Cetirizine dihydrochloride]	0.773
N[C@@H]1CONC1=O [D-cycloserine]	0.904
Clc1ccc(Cn2c(CN3CCCC3)nc3ccccc32)cc1 [Clemizole hydrochloride]	1.21
COc1cc2nc(N(C)CCCNC(=O)C3CCCO3)nc(N)c2cc1OC (stereo not given) [Alfuzosin hydrochloride]	0.92
